The text below walks through data of publication PMC8053111.

Amino acid sequences for entries named in this document (tags omitted).
UniProt P11940, whole entry: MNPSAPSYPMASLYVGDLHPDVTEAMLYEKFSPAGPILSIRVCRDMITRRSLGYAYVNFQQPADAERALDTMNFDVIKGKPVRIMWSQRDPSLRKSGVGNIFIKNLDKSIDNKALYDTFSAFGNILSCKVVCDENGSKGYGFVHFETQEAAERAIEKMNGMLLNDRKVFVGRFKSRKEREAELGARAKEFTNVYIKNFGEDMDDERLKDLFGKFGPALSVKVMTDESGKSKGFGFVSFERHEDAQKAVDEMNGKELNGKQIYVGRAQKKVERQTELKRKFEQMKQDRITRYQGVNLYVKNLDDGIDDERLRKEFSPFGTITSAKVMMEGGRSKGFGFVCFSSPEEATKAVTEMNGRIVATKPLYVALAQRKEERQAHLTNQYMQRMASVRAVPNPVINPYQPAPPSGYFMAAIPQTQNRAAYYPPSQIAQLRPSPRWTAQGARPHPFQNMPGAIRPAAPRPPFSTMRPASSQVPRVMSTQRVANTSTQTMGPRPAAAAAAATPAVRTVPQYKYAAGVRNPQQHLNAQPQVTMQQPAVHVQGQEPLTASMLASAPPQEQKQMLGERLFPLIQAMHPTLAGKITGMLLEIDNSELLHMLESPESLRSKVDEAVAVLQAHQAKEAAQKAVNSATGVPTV
UniProt Q13310, whole entry: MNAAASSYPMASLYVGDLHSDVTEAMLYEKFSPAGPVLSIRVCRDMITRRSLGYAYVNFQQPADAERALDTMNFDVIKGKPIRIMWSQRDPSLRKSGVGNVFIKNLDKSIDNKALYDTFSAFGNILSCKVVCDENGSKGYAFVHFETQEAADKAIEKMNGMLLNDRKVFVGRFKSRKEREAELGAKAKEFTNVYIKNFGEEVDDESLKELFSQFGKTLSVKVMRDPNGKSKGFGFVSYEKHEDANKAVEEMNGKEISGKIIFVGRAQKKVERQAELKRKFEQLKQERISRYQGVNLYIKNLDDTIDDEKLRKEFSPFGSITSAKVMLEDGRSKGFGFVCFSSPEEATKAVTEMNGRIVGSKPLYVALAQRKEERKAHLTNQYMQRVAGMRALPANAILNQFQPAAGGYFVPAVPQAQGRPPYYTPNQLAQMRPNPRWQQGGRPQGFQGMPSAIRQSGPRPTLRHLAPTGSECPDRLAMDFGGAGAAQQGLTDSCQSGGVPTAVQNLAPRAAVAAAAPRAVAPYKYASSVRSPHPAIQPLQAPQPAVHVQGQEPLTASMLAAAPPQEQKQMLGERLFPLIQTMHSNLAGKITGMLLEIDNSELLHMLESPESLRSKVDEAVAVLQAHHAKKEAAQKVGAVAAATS

For at least one entry, the source does not settle the construct or the ends of the probe. For part of these data: The comparison behind a weaker result is the experiment's own reference, which may not be listed here. For part of these data: Results from cells or extracts need not show a direct contact. For part of these data: At least one verdict rests on a figure or table, not on a statement of the authors.

Holding throughout (assay): EMSA
Data set [1] addresses Ub-PABPC1 (in vitro ubiquitinated by MKRN3) (human) (UniProt P11940). As to conditions: in vitro ubiquitinated by MKRN3, much less affinity than unmodified; EMSA Binding Buffer (Beyotime, 5x stock; composition, salt and pH not given), room temperature, 1 h; 8% polyacrylamide 0.5x TBE gel; recombinant protein; residues 1-636; protein details: Flag-His6; label: 32P (gamma-32P, stated at 3' end by T4 PNK). A general note: A gel shift assay detects complexes by their altered migration in electrophoresis.

In data set [2] the target is Ub-PABPC1 (from MKRN3-/- HEK293 cells + MKRN3) (human) (UniProt P11940). As to conditions: ubiquitinated in cells, much weaker than unmodified; EMSA Binding Buffer (Beyotime, 5x stock; composition, salt and pH not given), room temperature, 1 h; 8% polyacrylamide 0.5x TBE gel; protein in a lysate after overexpression; protein details: Flag; label: 32P (gamma-32P, stated at 3' end by T4 PNK).

The target in data set [3] is PABPC1 (from MKRN3-/- HEK293 cells, not MKRN3-ubiquitinated) (human) (UniProt P11940). As to conditions: unmodified, no MKRN3; EMSA Binding Buffer (Beyotime, 5x stock; composition, salt and pH not given), room temperature, 1 h; 8% polyacrylamide 0.5x TBE gel; protein in a lysate after overexpression; protein details: Flag; label: 32P (gamma-32P, stated at 3' end by T4 PNK).

Data set [4] deals with PABPC4 (from MKRN3-/- HEK293 cells, not MKRN3-ubiquitinated) (human) (UniProt Q13310). As to conditions: unmodified, no MKRN3; EMSA Binding Buffer (Beyotime, 5x stock; composition, salt and pH not given), room temperature, 1 h; 8% polyacrylamide 0.5x TBE gel; protein in a lysate after overexpression; protein details: Flag; label: 32P (gamma-32P, stated at 3' end by T4 PNK).
In data set [5] the target is Ub-PABPC4 (in vitro ubiquitinated by MKRN3) (human) (UniProt Q13310). As to conditions: in vitro ubiquitinated by MKRN3, much less affinity than unmodified; EMSA Binding Buffer (Beyotime, 5x stock; composition, salt and pH not given), room temperature, 1 h; 8% polyacrylamide 0.5x TBE gel; recombinant protein; protein details: Flag-His6; label: 32P (gamma-32P, stated at 3' end by T4 PNK).

Data set [6] concerns the target Ub-PABPC4 (from MKRN3-/- HEK293 cells + MKRN3) (human) (UniProt Q13310). As to conditions: ubiquitinated in cells, much weaker than unmodified; EMSA Binding Buffer (Beyotime, 5x stock; composition, salt and pH not given), room temperature, 1 h; 8% polyacrylamide 0.5x TBE gel; protein in a lysate after overexpression; protein details: Flag; label: 32P (gamma-32P, stated at 3' end by T4 PNK).

Take “AAAAAAAAAAAAAAAAAAAAAAAAAAAAAA [(A)30 RNA]”: the binding result is listed as “binds more weakly” in data set [1]; “binds more weakly” in data set [2]; “binds” in data set [3]; “binds” in data set [4]; “binds more weakly” in data set [5]; “binds more weakly” in data set [6].
